Results from patent US5310469A, “Biosensor with a membrane containing biologically active material” (Abbott Laboratories, priority 1991, dated 1994).

Experiments:
[1] = Selectivity of amperometric glucose sensor, flow-injection mode (TABLE 4B); conditions: for Relative Response: relative to glucose
[2] = Relative response of sensor stored in pH 7.5 buffer (TABLE 4D)

Structure (SMILES)	Response [1]	Relative Response [1]	other results
OC[C@H]1OC(O)[C@H](O)[C@@H](O)[C@@H]1O (stereo partly shown) [Glucose]	50.4 nA/mM	–	–
COc1ccccc1O [GA, guaiacol]	–	4.3%	–
CC(=O)Nc1ccc(O)cc1 [APAP, 4-acetamidophenol]	1.10 nA/mM	2.2%	APAP/H202 × 100 ([2]; Day 1 (first line)): 0.032; APAP/H202 × 100 ([2]; Day 1 (second line)): 1.34; APAP/H202 × 100 ([2]; Day 10): 3.07; APAP/H202 × 100 ([2]; Day 16): 3.4; APAP/H202 × 100 ([2]; Day 55): 63
OO [H2 O2, hydrogen peroxide]	256 nA/mM	–	–
O=C(O)c1cc(O)ccc1O [GT, gentisic acid]	0.15-0.9 nA/mM	0.3%	–
O=C1O[C@H]([C@@H](O)CO)C(O)=C1O [AA, ascorbic acid]	3.39 nA/mM	6.7%	–
Oc1ccccc1O [Py, pyrocatechol]	–	9.2%	–
N[C@@H](Cc1ccc(O)c(O)c1)C(=O)O [DOPA, Lbeta-3,4-dihydroxyphenylalanine]	4.53 nA/mM	9.0%	–
O=c1[nH]c(=O)c2[nH]c(=O)[nH]c2[nH]1 [Uric Acid]	1.05 nA/mM	2.12%	–
Nc1ccc(C(=O)O)c(O)c1 [AHB, 4amino-2-hydroxybenzoic acid]	< 0.05 nA/mM	< 0.1%	–
NC(=O)c1ccccc1O [SALA, salicylamide]	–	6.7%	–
